{"source": "patent US20080026417A1", "about": "“ASSAYS FOR TRICHOMONAL AND OTHER HYDROLASES” (priority 2002, published 2008)", "key": {"trichomonal hydrolases": {"system": "trichomonal hydrolases", "assay": "Experiment 6 part 2: inhibition of trichomonal hydrolases added to filtered vaginal fluid", "assay_type": "biochemical, Trichomonas vaginalis", "set-up": "key: 0: Yellow; 1: Peach; 2: Orange; 3: Light to medium pink; 4: Dark pink or red; 5: Fuchsia; 6: Purple", "settings": "ZRR-MNA, 20 μg/mL antipain or 1 mM chymostatin", "procedure": "(§1) Substrate/inhibitor combinations were prepared by mixing 4 μL of 100 mM ZRR-MNA, 20 μL of 1M HEPES buffer, 56 μL of deionized water, and 20 μL of either antipain, chymostatin, or deionized water. Filtered vaginal fluid was prepared from each specimen as follows: the swab was placed in a cuvette containing 200 μL of diluent and the swab was rotated in the diluent to thoroughly mix the swab contents into the diluent. The swab was removed, the swab head was broken off into a microfuge tube, and the liquid remaining in the swab head was forced out by centrifugation. The fluid extracted from the swab was combined with the liquid in the cuvette, and the total volume of fluid was filtered using a centrifuge filter unit to remove particulate matter.\n(§2) For each specimen, 4 μL of vaginal fluid filtrate was mixed with 4 μL of each of the three substrate/inhibitor combinations in separate microwells; one well contained 20 μg/mL antipain, one contained 1 mM chymostatin, and one had no inhibitor. After ten minutes, 4 μL of color developer solution was added to each well.\nTrichomonal hydrolases were added to each of the filtered vaginal fluid specimens—10 μL of trichomonal hydrolase preparation added to 90 μL vaginal fluid filtrate—and the above experiment was repeated."}, "[1]": {"system": "non-trichomonal hydrolases present in normal vaginal fluid supernatants", "assay": "Experiment 6 part 1: inhibition of non-trichomonal hydrolases in filtered normal vaginal fluid", "assay_type": "biochemical, human", "set-up": "key: 0: Yellow; 1: Peach; 2: Orange; 3: Light to medium pink; 4: Dark pink or red; 5: Fuchsia; 6: Purple", "settings": "uninfected, ZRR-MNA, 20 μg/mL antipain or 1 mM chymostatin", "procedure": "as §1, §2"}}, "note": "At least one structure is not confirmed: it was looked up by name or label, or the drawing left a doubt. Numbered stars: 1 amine (or outer) side, 2 acyl side, 3 side chain; on linkers, the order of the positions; unused ones are H or OH. Peptide text beside a SMILES is read from it. CO = O=C([*:1])[*:2]"}
{"smiles": "CC(C)[C@H](NC(=O)[C@H](CCCNC(=N)N)NC(=O)N[C@@H](Cc1ccccc1)C(=O)O)C(=O)N[C@H](C=O)CCCNC(=N)N", "note": "[Antipain, antipain] ({Phe-CO}-Arg-Val-Arg-aldehyde)", "values": [{"measurement": "Hydrolase activity color score with inhibitor", "setting": "trichomonal hydrolases; Donor A filtrate supplemented with trichomonal hydrolases", "result": 4}, {"measurement": "Hydrolase activity color score with inhibitor", "setting": "trichomonal hydrolases; Donor B filtrate supplemented with trichomonal hydrolases", "result": 3.5}, {"measurement": "Hydrolase activity color score with inhibitor", "setting": "trichomonal hydrolases; Donor C filtrate supplemented with trichomonal hydrolases", "result": 3.5}, {"measurement": "Hydrolase activity color score with inhibitor", "setting": "trichomonal hydrolases; Donor D filtrate supplemented with trichomonal hydrolases", "result": 4}, {"measurement": "Hydrolase activity color score with inhibitor", "setting": "trichomonal hydrolases; Donor E filtrate supplemented with trichomonal hydrolases", "result": 3}, {"measurement": "Hydrolase activity color score with inhibitor", "setting": "trichomonal hydrolases; Donor F filtrate supplemented with trichomonal hydrolases", "result": 2.5}, {"measurement": "Hydrolase activity color score with inhibitor", "setting": "[1]; Donor A", "result": 0}, {"measurement": "Hydrolase activity color score with inhibitor", "setting": "[1]; Donor B", "result": 0}, {"measurement": "Hydrolase activity color score with inhibitor", "setting": "[1]; Donor C", "result": 0}, {"measurement": "Hydrolase activity color score with inhibitor", "setting": "[1]; Donor D", "result": 0}, {"measurement": "Hydrolase activity color score with inhibitor", "setting": "[1]; Donor E", "result": 0}, {"measurement": "Hydrolase activity color score with inhibitor", "setting": "[1]; Donor F", "result": 0}]}
